Measured values taken from patent US20250042880A1 (UNIVERSITY OF KENTUCKY RESEARCH FOUNDATION, priority 2021, published 2025).

Tested on: LS174T cells
Assay: RNA-Seq transcriptomic assay
Format: cell-based
Conditions: 5 μM, 24 h, Qvalue ≤0.05 and |log 2FC|≥1

Question: O=c1c(-c2ccc(Cl)c(Cl)c2)coc2cc(OCCN3CCN(CCO)CC3)ccc12 [DBI-6, 3-(3,4-dichlorophenyl)-7-(2-(4-(2-hydroxyethyl)piperazin-1-yl)ethoxy)-4H-chromen-4-one] was tested. Which genes down-regulated did it give?
Answer: The genes down-regulated was 2772.

Question: What about the genes up-regulated of the same compound?
Answer: The genes up-regulated was 2799.
